From PubChem BioAssay AID602313 (National Center for Advancing Translational Sciences (NCATS), 2012)
The whole screen tested about 390,000 compounds, of which about 760 (0.19%) were called active. This list was built around the results that the source calls inconclusive (neither active nor inactive); the mix of calls is not that of the screen. Calls come from the whole dose curve; as a rule, active = well fitted inhibition curve with a large enough effect; inconclusive = small, poorly fitted or top-dose-only effect; inactive = flat fitted curve, though single readings scatter. Where the call is inconclusive, the potency comes from a doubtful curve fit.
Potency is the fitted concentration of half-maximal effect.

Assay: qHTS for Inhibitors of Vif-A3F Interactions: qHTS; note: nearly all actives have a fitted effect of over 65% in size; for activity, negative = active: % of control where 0% means no effect
Conditions: HeLa A3F-eYFP + Vif (tagged APOBEC3F with the HIV-1 protein that degrades it), YFP fluorescence increase; series mostly up to 46.1 µM; activity, negative = active: at the top concentration
Procedure, shortened: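 HeLa cells stably expressing Vif plus C-terminally eYFP-tagged A3F were seeded, incubated overnight at 37 deg C, dosed with compound, incubated overnight again at 37 deg C. Yellow fluorescence (Ex 488/Em 500-530) reported blocked Vif-mediated A3F-eYFP degradation.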
In the case of CC(C)(C)CC(=O)NC(=S)NCc1ccccc1, the Potency is reported as inconclusive: 35.5 µM [inhibitor, single point]. For S=C(NN=C(c1ccccc1)c1ccccn1)N(Cc1ccccn1)Cc1ccccn1, the “activity, negative = active” value was inactive: 2.68%. For Brc1ccccc1C1CC(c2ccccc2)=Nc2ccccc2N1 (centres undefined), the Potency was inconclusive: 35.5 µM [inhibitor, single point]. For C=CCn1c(N)c(C(=O)NCc2cccnc2)sc1=S, the Potency was inconclusive: 6.31 µM [inhibitor, single point]. With O=C(NC(=S)NCCc1ccccc1)c1ccco1 the Potency was inconclusive: 22.4 µM [inhibitor, single point]. For O=C(CN1C(=O)c2ccccc2S1(=O)=O)c1ccc(Cl)cc1Cl, the “activity, negative = active” value was inactive: 8.9%. For COc1ccc(CCNC(=O)c2cc(-c3ccco3)on2)cc1OC, the Potency was inconclusive: 35.5 µM [inhibitor, single point]. In the case of O=c1[nH]c2ccccc2nc1/C=C/c1ccc(F)cc1, the Potency is reported as inconclusive: 7.08 µM [inhibitor, partial curve, poor fit]. With O=C1CC(c2cc(F)cc(F)c2)c2cc3c(cc2N1)OCO3 (centres undefined) the “activity, negative = active” value was inactive: 3.67%. In the case of Cc1c(C(=O)N2CCN(c3ccc(F)cc3)CC2)sc2nc3n(c(=O)c12)CCC3, the Potency is reported as inconclusive: 0.562 µM [inhibitor, partial curve, poor fit]. With CN(C(=O)c1cccc(NC(=O)Cc2cccc(NC(=O)C3CCN(C(=O)C4CCCCC4)CC3)c2)c1)C1CCC1 the “activity, negative = active” value was inactive: 4.21%. With COc1ccc(Nc2nnc(C)c(=O)[nH]2)c(OC)c1 the Potency was inconclusive: 5.62 µM [inhibitor, full curve, poor fit]. In the case of O=C(Nc1nc2ccc(S(=O)(=O)N3CCCC3)cc2s1)c1ccco1, the Potency is reported as inconclusive: 35.5 µM [inhibitor, single point]. For CC(C)(C)c1ccc(C(=O)Nc2ccc(Oc3cccnc3)nc2)cc1, the “activity, negative = active” value was inactive: -25.4%. For Cc1cc(C(F)(F)F)c(C#N)c(SCC(=O)Nc2nc3cc(Br)ccc3s2)n1, the Potency was inconclusive: 7.08 µM [inhibitor, partial curve, poor fit]. In the case of CCc1nnc(NC(=O)c2ccc3ccccc3n2)s1, the Potency is reported as inconclusive: 3.55 µM [inhibitor, single point]. For Fc1ccc(NC(=S)Nc2nccs2)cc1, the Potency was inconclusive: 3.16 µM [inhibitor, single point]. For O=C(Nc1nnc(C2=COCCO2)o1)c1cccc(Br)c1, the Potency was inconclusive: 4.47 µM [inhibitor, single point]. With [O-][N+]1=c2ccc(Nc3ccccc3)cc2=NC12CCCCC2 the Potency was inconclusive: 35.5 µM [inhibitor, single point]. In the case of COc1ccc(CC(=O)NC(=S)Nc2cccc(C)c2)cc1, the Potency is reported as inconclusive: 35.5 µM [inhibitor, partial curve, poor fit]. In the case of COc1cc2cc(C(c3nnnn3C3CCCC3)N3CCCCCC3)c(=O)[nH]c2cc1OC (centres undefined), the Potency is reported as inconclusive: 2.82 µM [inhibitor, full curve, poor fit]. With CCSc1nc2nc(C)cc(C)n2n1 the Potency was inconclusive: 11.2 µM [inhibitor, single point]. In the case of c1ccc(CCn2cnc3ccccc32)cc1, the “activity, negative = active” value is reported as inactive: -0.345%. With O=C(Nc1ccc(-c2nc3ccccc3o2)c(O)c1)c1ccccc1 the Potency was inconclusive: 35.5 µM [inhibitor, single point]. In the case of C=CCN1C(=O)C(CC(=O)O)S/C1=N/N=C/c1ccc(N(CC)CC)cc1 (centres undefined), the Potency is reported as inconclusive: 28.2 µM [inhibitor, single point]. For COc1ccc(CS(=O)(=O)CC(C)(O)c2ccc(Cl)cc2)cc1 (centres undefined), the Potency was inconclusive: 1.58 µM [inhibitor, partial curve, poor fit]. In the case of COc1ccc(Cl)cc1NC(=S)NC1CCCC1, the Potency is reported as inconclusive: 35.5 µM [inhibitor, single point]. With CC1Cc2ccccc2N1S(=O)(=O)c1cccc(C(=O)N2CCN(c3ncccn3)CC2)c1 (centres undefined) the “activity, negative = active” value was inactive: 0.0313%. In the case of OCC[n+]1ccc(/C=C/c2c[nH]c3ccccc23)cc1, the Potency is reported as active: 3.55 µM. In the case of CC(C)(C)/C(O)=C/c1nc2ccccc2[nH]c1=O, the Potency is reported as inconclusive: 22.4 µM [inhibitor, single point]. With CC(Cc1cccs1)NC(=S)Nc1ccc(Cl)c(Cl)c1 (centres undefined) the Potency was inconclusive: 35.5 µM [inhibitor, single point]. With CC1C(c2ccccc2)N(C)C(c2ccccc2)C(C)C1(O)C#Cc1ccccc1 (centres undefined) the Potency was inconclusive: 35.5 µM [inhibitor, single point]. With CC(NC(=O)OC(C)(C)C)C(=O)Oc1ccc2ccc(=O)oc2c1 (centres undefined) the “activity, negative = active” value was inactive: -6.32%. For CC1(C)COC2(OC1)C(=O)Nc1ccccc12, the “activity, negative = active” value was inactive: 11.7%. In the case of CCOC(=O)c1c(NC(=O)c2noc(C)c2[N+](=O)[O-])sc(C(C)=O)c1C, the Potency is reported as inconclusive: 3.55 µM [inhibitor, single point]. For COC(=O)C1Cc2ccccc2CN1C(=O)CCl (centres undefined), the “activity, negative = active” value was inactive: 4.29%. In the case of O=C1c2cccc3cc([N+](=O)[O-])cc(c23)C(=O)N1CCN1CCCC1, the Potency is reported as inconclusive: 25.1 µM [inhibitor, single point]. In the case of Cc1cc(C)c2c(N)c(C(=O)NN3CC(=O)N(c4ccccc4)CC3=O)sc2n1, the “activity, negative = active” value is reported as inactive: 1.18%. In the case of CC(=O)c1c(C)[nH]c(C(=O)OCC(=O)N(Cc2ccccc2)C(C)(C)C)c1C, the Potency is reported as inconclusive: 35.5 µM [inhibitor, partial curve, poor fit]. With O=C(NC(=S)N1CCN(c2c(Cl)cccc2[N+](=O)[O-])CC1)c1cccs1 the Potency was inconclusive: 3.16 µM [inhibitor, partial curve, poor fit]. For COc1cc(/C=C(\C#N)C(=O)N2CCc3ccccc32)ccc1O, the Potency was inconclusive: 35.5 µM [inhibitor, single point]. For Fc1ccc(Oc2nc(-c3ccccn3)nc3ccccc23)cc1, the Potency was inconclusive: 3.55 µM [inhibitor, single point]. With Cc1ccc(/C=[N+](\[O-])c2ccc(N(C)C)cc2)c2nsnc12 the “activity, negative = active” value was inactive: 15.3%. In the case of Cc1c(C(=O)Oc2ccc(-c3cnc4ccccc4n3)cc2)cccc1[N+](=O)[O-], the “activity, negative = active” value is reported as inactive: 1.48%. For Cc1ccc(NC(=O)Cn2cnc3c(oc4nc5c(cc43)COC(C)(C)C5)c2=O)cc1, the Potency was inconclusive: 22.4 µM [inhibitor, single point]. In the case of CCOC(=O)C1(CCOc2ccccc2)CCN(Cc2ccc(O)c(OCC)c2)CC1, the Potency is reported as inconclusive: 6.31 µM [inhibitor, single point]. With O=C(NC1(C(F)(F)F)NC(=O)N(CCc2ccccc2)C1=O)c1ccccc1Cl (centres undefined) the “activity, negative = active” value was inactive: 8.41%. For O=C(Nc1ccc2c(c1)CCC2)c1cccc(S(=O)(=O)N2CCN(c3ccccc3)CC2)c1, the “activity, negative = active” value was inactive: 3.58%. In the case of Cc1c(-c2nsc(NC(=O)c3cccs3)n2)nnn1-c1ccc(Cl)cc1, the “activity, negative = active” value is reported as inactive: -2.31%. With CC(NCc1cccc(OCc2ccccc2)c1)C(O)c1ccccc1 (centres undefined) the Potency was inconclusive: 22.4 µM [inhibitor, single point]. In the case of CCN(CC(=O)NCc1ccc(Cl)cc1)C(=O)CSc1ccc(F)cc1, the Potency is reported as inconclusive: 5.62 µM [inhibitor, single point]. With NC(=O)c1ccsc1NC(=O)COC(=O)CSc1ccc(Cl)cc1 the Potency was inconclusive: 10 µM [inhibitor, partial curve, poor fit]. For Cc1ccc(S(=O)(=O)N(C(=O)c2ccncc2)c2ccc3oc4c(c3c2)CCCC4)cc1[N+](=O)[O-], the Potency was inconclusive: 7.94 µM [inhibitor, partial curve, poor fit]. With CNCc1ccccc1Sc1ccc(O)c(O)c1 the Potency was inconclusive: 22.4 µM [inhibitor, single point]. For OC(CN1CCN(Cc2ccccc2)CC1)Cn1c2ccccc2c2ccccc21 (centres undefined), the Potency was inconclusive: 35.5 µM [inhibitor, single point]. With Cc1cccc(C(C)(C)C)c1OCCOCCN1CCCC1 the Potency was inconclusive: 2 µM [inhibitor, partial curve, poor fit]. With O=C(N/N=C/C=C/c1cccc([N+](=O)[O-])c1)c1ccncc1 the Potency was inconclusive: 35.5 µM [inhibitor, single point]. In the case of CC(C)(C)c1ccc(/C=N/Nc2nncn2N)cc1, the “activity, negative = active” value is reported as inactive: -5.61%. With S=C(NCCN1CCOCC1)N/N=C/c1cccs1 the Potency was inconclusive: 2.51 µM [inhibitor, full curve, poor fit]. With Cc1ccc(NC(=O)c2ccc(=O)n(CC(=O)Nc3c(C)cc(C)cc3C)n2)cc1 the Potency was inconclusive: 35.5 µM [inhibitor, single point]. With CCCCCCNC(=O)C(C#N)c1nc2ccccc2nc1N1CCCC1 (centres undefined) the “activity, negative = active” value was inactive: -6.74%. For COc1ccc(-c2ccc(CCC(=O)O)o2)cc1, the Potency was inconclusive: 35.5 µM [inhibitor, single point]. With CCCN(C(=O)COC(=O)CCOc1ccc(C)cc1)c1c(N)n(Cc2ccccc2)c(=O)[nH]c1=O the Potency was inconclusive: 35.5 µM [inhibitor, single point]. With Cc1ccc(CNC(=O)c2sc3nc4n(c(=O)c3c2C)CCCC4)cc1 the “activity, negative = active” value was inactive: 5%. For NC(=O)c1ccsc1NC(=O)c1coc2ccccc2c1=O, the Potency was inconclusive: 12.6 µM [inhibitor, partial curve, poor fit]. For OC1c2cc(Cl)ccc2-c2c(Cl)cc(Cl)cc21 (centres undefined), the Potency was inconclusive: 35.5 µM [inhibitor, single point]. For CC(C)n1nccc1NC(=O)COC(=O)c1ccc(NC(N)=O)cc1, the Potency was inconclusive: 5.62 µM [inhibitor, single point]. For CCC(C(=O)NC1CCCCC1)n1nc(C)c2sc3ccccc3c2c1=O (centres undefined), the “activity, negative = active” value was inactive: -4.97%. For COc1ccc(C2=CC(c3ccco3)n3ncnc3N2)cc1 (centres undefined), the Potency was inconclusive: 22.4 µM [inhibitor, single point].
